Measurements published in PMC6042332.
Results are given in words; binding and its absence hold for the method and conditions named. In cells and extracts the contact can be indirect. Some results given as binding are weak or reduced against the parent protein; the word gives no strength.

Amino acid sequences for entries named in this document (tags omitted). Residues count along the entry.
UniProt Q99873: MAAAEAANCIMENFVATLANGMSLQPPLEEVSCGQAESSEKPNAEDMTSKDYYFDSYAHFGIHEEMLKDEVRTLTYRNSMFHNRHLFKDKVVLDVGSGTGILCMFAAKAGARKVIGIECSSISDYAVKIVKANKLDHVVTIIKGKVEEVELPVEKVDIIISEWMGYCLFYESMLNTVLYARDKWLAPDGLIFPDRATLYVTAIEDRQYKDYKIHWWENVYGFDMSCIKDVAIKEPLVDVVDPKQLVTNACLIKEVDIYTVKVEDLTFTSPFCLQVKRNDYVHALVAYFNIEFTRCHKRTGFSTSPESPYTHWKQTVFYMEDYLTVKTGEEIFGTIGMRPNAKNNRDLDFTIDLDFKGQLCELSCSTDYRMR
UniProt P14349, residues 477-625: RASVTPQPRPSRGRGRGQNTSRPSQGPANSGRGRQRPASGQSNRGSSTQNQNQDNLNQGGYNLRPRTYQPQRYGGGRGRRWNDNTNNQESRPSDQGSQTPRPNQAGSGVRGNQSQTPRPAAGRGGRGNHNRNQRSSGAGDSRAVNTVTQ

Biological target: endogenous PRMT1 (human (endogenous in the transfected cells; all lines cultured in the paper for transfection are human)) (UniProt Q99873)
Test: co-IP; lysates of cells expressing HA-GRs or HA-GRs-R540A; immunoprecipitation with an anti-PRMT1 antibody (endogenous PRMT1); Western blot

HA-GRs (HA-tagged PFV Gag C-terminal domain encompassing the three GR boxes, aa 477-625) (from UniProt P14349 477-625) (domain or fragment)
binding: binds
